Results as given in PubChem BioAssay AID1508600 (Functional Genomics Laboratory (NCATS/FGL), 2020).
Among all 53,000 sequences or so, about 3,700 (7%) were called active.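 Rule for the calls: active = gene knockdowns whose robust z-score for IL-1 alpha signal is at least 2 or at most -2, so actives lie on both sides; inactive = the rest.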 Some of the results follow.

Assay: Components of the Cytosolic LPS Sensing Pathway: Gene Identification via Genome-wide siRNA Screen;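 note: robust z of the log signal after scaling to non-targeting control siRNA wells of the plate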
Conditions: RAW264.7 macrophages, IL-1a HTRF, actives lie on both sides, screened at 100 nM (by protocol), cells primed 5 h with Pam3CSK4 first
Outline: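 Knockdown: 100 nM siRNA, 48h, RAW264.7. Stimulation: Pam3CSK4 5 h, then LipidA via TransIT-TKO 24 h. Output: supernatant IL-1a HTRF, negative-control-normalized, log robust z-score; viability by CellTiter-Glo.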

| Sequence | z-score |
| --- | --- |
| GGCUCUCUUCGGGAAUACUTT against Tmem234 | inactive: 1.22 |
| GGACUCAGGGACCUUAUUATT against Apobec1 | inactive: 0.443 |
| GGUGAAGUCUGUGAGCAUUTT against Gna12 | inactive: 0.104 |
| GGAGAUUGGUGUUAGUAACTT against Sp7 | inactive: -0.198 |
| GCAAUUCCUGGACAUUUAATT against Prkcd | inactive: -0.522 |
| GACAUACCAGCCGUAUAACTT against Erh | active: -2.39 |
| GGAAGAAAGAGAAAACCUCTT against Slc4a3 | inactive: -0.0414 |
| GGAUUUGUCACCAUUCUGCTT against Peg10 | inactive: -0.0257 |
| GGCAUGUUUCUUGACUUAATT against Coil | inactive: 0.122 |
| GCCGGUUAUUUAUUUGUCATT against Sostdc1 | inactive: -0.482 |
| CGAAUGUCCUGGAAGCAAATT against Olfr142 | inactive: -0.0904 |
| GGAUUGGUUAUCAGGGCUATT against Rps19bp1 | inactive: -0.53 |
| GGAACCUAACUAACAAUACTT against Rab14 | inactive: 0.584 |
| GGCUUGAGUUUGAAGAAAUTT against Rb1 | inactive: -0.0607 |
| GGUUUUCUCUAAGCUGAAATT against Lum | inactive: -1 |
| GGGUAAAGGAGAUUGUGAUTT against Ppfibp2 | inactive: -0.103 |
| GGACAGGUGGUUACCAUAGTT against Arid2 | inactive: -0.251 |
| CCCAAGACUGGUCUUCCCATT against Slc12a8 | inactive: -1.98 |
| CGAAUAUGGUAUUCACUCATT against Skint4 | inactive: 0.157 |
| GCAGCUUGUGCAUAUUUGATT against A3galt2 | inactive: -0.834 |
| CCACAAAGAAUGCAUUACUTT against Eml3 | inactive: -0.912 |
| GCAGAACCUUAAAAGAAUGTT against Cabyr | inactive: -0.426 |

| Sequence | z-score |
| --- | --- |
| GGUCAAAGUGAUGCACGCCTT against Sfxn2 | inactive: 0.798 |
| GGAGAAGGAGUGCAAUUCCTT against Ptger3 | inactive: -0.495 |
| GGAAGUCAAGCAUAUUGCCTT against Sntb2 | active: 3.04 |
| GGAGUGGACAAUUUCUUUATT against Fstl4 | inactive: -0.261 |
| GGUUGUAUUAUUGGCUUUGTT against Snrpe | inactive: -1.38 |
| CGGCAUCCAUCUUUAGUGUTT against Hrh1 | inactive: 0.59 |
| CCUACAUUAAGCAAGGGACTT against Stk35 | inactive: 1.23 |
| GCGGUUGUGGUACUUAAGCTT against Nxnl1 | inactive: 0.601 |
| GCAAAAGUGAUAUUUGCACTT against Aox2 | inactive: 0.234 |
| GGUCUAUGGUAGUGGAAUATT against Magea7-ps | inactive: 1.25 |
| GGCGACACAGCAAAUGAAATT against Serpinb5 | inactive: -0.168 |
| GGAUAUACAUCAUUUCUCATT against Tmem131l | inactive: 1.03 |
| GGAGAUGCUCUGCUGGUGUTT against Cyb561 | inactive: -0.237 |
| GGCAGUCAGGAAAUGCUUGTT against Rwdd3 | inactive: -0.212 |
| CCAGAGAACCAAGUUAUUUTT against Olfr344 | inactive: -0.527 |
| CCUUGCUAGUAGAAUAAACTT against Park7 | inactive: 1.14 |
| CGAGCUAAAUUUCAAGAACTT against Tcp11x2 | inactive: 0.312 |
| GGCAACGAUGAAAACUACUTT against Runx1 | inactive: 1.07 |
| GGACAAGACCAUCUUCGAUTT against Sectm1a | inactive: 0.21 |
| GCUGCGCAUCCACUUAGAUTT against Tmed11 | inactive: -0.964 |
| GGCCGACAAUUUGUCAGUUTT against Uaca | inactive: -1.19 |
| GCCAGUUUCCAGUCCUUGUTT against Dppa5a | inactive: -0.2 |

| Sequence | z-score |
| --- | --- |
| GGCAGAACUACAUUGAAAATT against Dusp11 | inactive: 0.0735 |
| GGAAAAUGCUGACUGAUAUTT against Cts8 | inactive: 0.231 |
| CCUCAAAUGGCCACACACUTT against Kcnj11 | inactive: -1.27 |
| GGACCCUACAUUCUGUAUATT against Olfr474 | inactive: 0.0714 |
| GGAGAUCCGAUGUUAUGUGTT against Atp9a | inactive: -1.12 |
| GCAUUCGCUACAAUUCCAUTT against Slc31a1 | inactive: 0.112 |
| GCCAAAUUGACUGUAAAUGTT against Lrig2 | inactive: -1.9 |
| CCUUAUUCAACCAUACGGCTT against Fut10 | inactive: 0.796 |
| GGAAGAAACUUAAAUGAGUTT against Eif3d | inactive: 1.33 |
| GGUCAUCGAUAAGAAAAGATT against Hunk | inactive: -1.09 |
| GCCAAAACUCUGUUAGAUATT against Anapc7 | inactive: -0.931 |
| GGAGGCCAAGCAGAAAGAGTT against Kars | inactive: 0.184 |
| GGGAGCAUCAAACAACAAUTT against Tbr1 | inactive: 0.742 |
| CCUCCUACUGUUUAAUGUUTT against Exd2 | active: 2.47 |
| GGUUAUUAAGUAGCUUUUCTT against Dtx1 | inactive: 1.64 |
| GGUUGUUCCCUUGAAAGGCTT against Gamt | inactive: -0.105 |
| GGAGCUAGAAAAGACAUACTT against Lmna | inactive: 0.949 |
| GGCUCAGAAAGAAGAACUUTT against Pbxip1 | inactive: 0.273 |
| GGUAGCAGUUGCUUUAAUATT against Siah2 | active: 2.65 |
| GGGUUAUGACAAGAUGGCUTT against Olfr1440 | inactive: -1.65 |
| CUUUAUGGGUCGUGGAGGATT against Hnrnpa3 | inactive: -1.12 |
| CGCUGUUAUGGUUACCAUATT against Myoc | inactive: 0.785 |

Individual results from the entries so far.
Under z-score, GGAAGAAACUUAAAUGAGUTT against Eif3d is entered as inactive: 1.33
Under z-score, GGGUUAUGACAAGAUGGCUTT against Olfr1440 is entered as inactive: -1.65

Next results:

| Sequence | z-score |
| --- | --- |
| GCUAUUGUUGUUGCAUCUGTT against Vmn1r58 | inactive: -0.0251 |
| GCCUAUAUCCAUGCACUGGTT against Frg1 | inactive: -0.579 |
| GGUCCUCCAGUUAAUGUCATT against Glra3 | inactive: -0.916 |
| CGAUGGCUUGGUUCCAUUUTT against Tcaf3 | inactive: -0.0976 |
| GUGCAUCAUGUCGGCUUUGTT against Tmem191c | inactive: 0.399 |
| CCAUUAUGCGUCAAGGCCUTT against Olfr1231 | inactive: -1.72 |
| GCGUACGAGCGAAGGAUACTT against Cdc42bpb | inactive: -0.683 |
| GCAGAUGCUCUCCUUAAAATT against Siglecg | inactive: 0.922 |
| GGCGCAGAUGAAGAAUCCGTT against Stxbp1 | inactive: 0.0265 |
| GGUGGACCAAAAAGAACUUTT against 4933417A18Rik | inactive: 1.37 |
| GUGAGUUCUAGAACAGCUATT against BC043934 | inactive: 1.37 |
| GGAUGUGAGCACAUCUUCUTT against Bard1 | inactive: 0.762 |
| GGUCUUGGUAUCAUAUAUGTT against Nrep | inactive: 0.16 |
| GGCCUUUGUACAGGACCCATT against Tor2a | inactive: -1.01 |
| GGAAGGAGAAAGAGUAUGATT against Mnt | inactive: 0.525 |
| GGAUCUGCUCACAUAGUCATT against Slc2a2 | inactive: -0.826 |
| GGAACUUGUUUCAUAUCGUTT against Scfd1 | inactive: 0.839 |
| GCUAAUUGCUCCGUACUCCTT against Gm11961 | inactive: 0.655 |
| GGAUCCAGACACCUCAAGATT against Vxn | inactive: 0.702 |
| CCACGAAAACGUGAAAUAUTT against Gpd1l | inactive: -0.0886 |
| GGGUAUGGCAUAAAUGUCCTT against Zpbp | active: -2.75 |
| CCAAUUUACGACAAAUCGUTT against Entpd4 | inactive: -0.56 |

Some of the entries above in another layout.
Sequence | z-score
GGAACUUGUUUCAUAUCGUTT against Scfd1 | inactive: 0.839
GCUAAUUGCUCCGUACUCCTT against Gm11961 | inactive: 0.655
GGAUCCAGACACCUCAAGATT against Vxn | inactive: 0.702

More entries follow:

| Sequence | z-score |
| --- | --- |
| GGAUGACUUCACUAAGAUUTT against Dpys | inactive: 1.33 |
| GCUCGCACAGAAGUUACAATT against Lrrc42 | inactive: -0.486 |
| CCAGUAUACCUAUGACUGCTT against Apba3 | inactive: 0.621 |
| GCUCAACGAACAUUUAUAGTT against Usp26 | inactive: -0.158 |
| GCGAAUUUGCCUCUUACUATT against Rad9a | inactive: 0.394 |
| CCCUACGGACCGUAAAUAGTT against Psg16 | inactive: -0.0808 |
| GGUUUGAAUGUCACCGGCATT against Defb29 | inactive: -1.22 |
| CCGUAUGAACGUGUGAUAATT against Rasef | inactive: 0.142 |
| GGUACCAUUCUGCACUACATT against Kcnh6 | inactive: -0.443 |
| GCACAAAGAUCCCUCUUCATT against Olfr1162 | inactive: 0.89 |
| CGUUUCCUGCUCAAAUCCUTT against Abhd2 | inactive: -1.17 |
| GGAGCAGGAGGUGUAUGUATT against Efs | inactive: -0.771 |
| GGACCUAGAGGAAGUGAAATT against Apoa1 | inactive: -0.65 |
| GCCUGGUUAAGGCAUGAUATT against Gm4884 | active: 2.63 |
| GGACUUUUAAGUUUGUAUGTT against Grpel1 | inactive: -0.39 |
| CCUUCAGUAGGAGUGCUGCTT against Peg3 | inactive: 0.445 |
| GGCUGCUCUUGAAAAUGAUTT against Tspan14 | inactive: -0.839 |
| CCCUCAAUAGUGCUGGUUATT against Galp | inactive: -0.467 |
| GGCUUUGUGCAAGGUCAUUTT against Hcrtr1 | inactive: -0.881 |
